Reference: article doi:10.1101/2024.09.23.614413
No constants are given. Whether binding was seen depends on the method and setting. Binding seen in cells or lysates may run through a third protein. Some results given as binding are weak or reduced against the parent protein; the word gives no strength.

Target: T1, MARCHF5 (human (endogenous in BC-3)) (UniProt Q9NX47)
T1 sequence: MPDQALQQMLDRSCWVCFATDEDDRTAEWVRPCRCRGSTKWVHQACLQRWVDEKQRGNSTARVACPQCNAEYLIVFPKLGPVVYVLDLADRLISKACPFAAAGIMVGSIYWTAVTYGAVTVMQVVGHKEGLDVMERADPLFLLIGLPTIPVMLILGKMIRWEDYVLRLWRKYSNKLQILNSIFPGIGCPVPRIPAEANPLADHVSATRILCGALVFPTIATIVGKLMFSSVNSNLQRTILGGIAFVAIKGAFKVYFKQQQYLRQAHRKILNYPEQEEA
Assay: co-IP; reciprocal co-IP of endogenous proteins from BC-3 cell lysate; IP buffer (25 mM HEPES, 100 mM NaCl, 10 mM CaCl2, 5 mM MgCl2) with 1% digitonin; anti-MARCHF5 or anti-NOXA antibody overnight at 4°C, Protein A/G magnetic beads; Western blot for MARCHF5 or NOXA

binding: binds
B1: NOXA (protein, UniProt Q13794 1-54)
chain: MPGKKARKNAQPSPARAPAELEVECATQLRRFGDKLNFRQKLLNLISKLFCSGT
